These results are taken from the supplement of paper PMC11348887.

Common to all, as to conditions: 5 µM; treatment: days 7-14 after plating, readout day 21
Test [1] deals with hPSC-derived cortical neurons (WA09). The test can be described thus: nucleus area z-score vs screen plate; higher = larger nuclei (more mature).
Test [2] has the same test system. The test can be described thus: total neurite length per nucleus (MAP2) z-score; higher = more neurite growth.
Test [3] shares this test system. In words: nucleus roundness z-score vs screen plate; higher = rounder nuclei (more mature).
Test [4] shares this test system. The test can be described thus: KCl-induced FOS+/EGR-1+ double-positive nuclei fraction z-score (KCl minus unstimulated); higher = stronger activity-induced IEG response.

Counter-ions that a name gives are not always drawn. The list shows a part of the results. Most values lie at the level of the controls, where differences are scatter.

With `CNC(=O)c1ccc(N2C(=S)N(c3ccc(C#N)c(C(F)(F)F)c3)C(=O)C2(C)C)cc1F` [Enzalutamide (MDV3100)], in test [1], the nucleus area z-score came out at 2.84. Also, in test [2], the “total neurite length per nucleus (z-score)” value was -0.221. This compound came in with a nucleus roundness z-score in test [3] of -0.0993. Moreover, in test [4], the “KCl-induced FOS+/EGR-1+ double-positive nuclei fraction z-score” value was 1.68.

With `CCN[C@@H]1C[C@H](N)[C@@H](O[C@H]2OC(CN)=CC[C@H]2N)[C@H](O)[C@H]1O[C@H]1OC[C@](C)(O)[C@H](NC)[C@H]1O` [Netilmicin Sulfate], in test [1], the nucleus area z-score was -0.0415. Besides, the “total neurite length per nucleus (z-score)” value in test [2] was -1.42. The same compound showed a nucleus roundness z-score in test [3] of -0.877. For the same compound, the “KCl-induced FOS+/EGR-1+ double-positive nuclei fraction z-score” value in test [4] is -0.634.

For `CC(C)NCCCn1c(Sc2cc3c(cc2I)OCO3)nc2c(N)ncnc21`, the nucleus area z-score in test [1] is -8.93. Besides, the “total neurite length per nucleus (z-score)” value in test [2] is -4.81. The compound also returned a nucleus roundness z-score in test [3] of -5.32. Besides, the “KCl-induced FOS+/EGR-1+ double-positive nuclei fraction z-score” value in test [4] is 2.31.

For the compound `CCCc1cc(=O)[nH]c(=S)[nH]1` [Propylthiouracil], the nucleus area z-score in test [1] is -0.543. Moreover, in test [2], the “total neurite length per nucleus (z-score)” value was 0.38. Moreover, in test [3], the nucleus roundness z-score is 0.122. In test [4], the “KCl-induced FOS+/EGR-1+ double-positive nuclei fraction z-score” value amounted to 1.32.

In test [1], `CC/C(=C(\c1ccc(O)cc1)c1ccc(OCCNC)cc1)c1ccccc1` [Endoxifen HCl] gave a nucleus area z-score of -5.19. Moreover, in test [2], the “total neurite length per nucleus (z-score)” value was -1.22. The nucleus roundness z-score in test [3] was -3.64. For the same compound, in test [4], the “KCl-induced FOS+/EGR-1+ double-positive nuclei fraction z-score” value is -1.33.

The compound `O=C(Nc1cccc(C(F)(F)F)c1)Nc1cc(S(=O)(=O)NC2CC2)ccc1-c1ccsc1` returned a nucleus area z-score in test [1] of 1.09. For the same compound, in test [2], the “total neurite length per nucleus (z-score)” value was -0.408. The nucleus roundness z-score in test [3] was -0.434. Moreover, the “KCl-induced FOS+/EGR-1+ double-positive nuclei fraction z-score” value in test [4] was -0.732.
